# Small-molecule microarray binding calls

Calls as published in the ROBIN set (doi:10.1002/anie.202211358).

Targets, with sequences 5′ to 3′:
SAM-II: SAM-II riboswitch RNA pseudoknot, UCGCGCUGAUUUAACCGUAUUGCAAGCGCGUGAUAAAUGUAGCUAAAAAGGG. About 200 hits among about 21,000 compounds.
PreQ1: PreQ1 riboswitch RNA pseudoknot, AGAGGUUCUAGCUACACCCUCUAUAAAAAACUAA. From B. subtilis. About 170 hits among about 24,000 compounds.
TPP: TPP riboswitch RNA three-way junction, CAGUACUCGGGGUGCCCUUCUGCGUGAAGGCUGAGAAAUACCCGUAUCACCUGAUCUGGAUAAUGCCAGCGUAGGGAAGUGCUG. About 160 hits among about 24,000 compounds.

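Each compound is printed as two spots on a slide made to bind it covalently, so it has no test concentration; the read-out is fluorescence of the bound, labelled oligonucleotide. For the PreQ1, TPP and SAM-II riboswitches the laboratory earlier reported (doi:10.1038/s41467-019-09493-3) 1 µM RNA, 2 h, and a rule that included a mean Z-score above 3 (spot signal-to-noise against the whole library), a score well above that on a control array, and duplicate spots agreeing (coefficient of variation under 100). The data file gives only the calls; its cut-offs may differ, and compounds hitting several targets are kept. These are primary screening calls, not affinities; a compound without a hit may have attached poorly or may still bind in solution.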 Key: 1 = hit, 0 = tested without a hit. This is an unselected part of the compounds tested. A target missing from an entry has no call listed here.

{"compound": "CC1=C(C(=O)OC(C)C)C2(C(=O)N(C)c3ccc(Br)cc32)C(C#N)=C(N)O1", "stereo": "centres undefined", "SAM-II": "0", "PreQ1": "0", "TPP": "0"}
{"compound": "Cc1c(C#N)c(N)n(Cc2ccccn2)c1C", "SAM-II": "0", "PreQ1": "0", "TPP": "0"}
{"compound": "COC(=O)c1c(N)n(CCC2=CCCCC2)c2nc3ccccc3nc12", "SAM-II": "0", "PreQ1": "0", "TPP": "0"}
{"compound": "CCC(O)c1nc2ccccc2n1CCOc1ccc(Cl)cc1", "stereo": "centres undefined", "PreQ1": "0", "TPP": "0"}
{"compound": "COc1ccc(CCNC(C)C)cc1OC", "SAM-II": "0", "PreQ1": "0", "TPP": "0"}
{"compound": "O=C(c1cccc(F)c1)N1CCN(CCO)CC1", "SAM-II": "0", "PreQ1": "0", "TPP": "0"}
{"compound": "CC(O)c1cccc(NC(=O)c2cc3n(n2)C(C(F)(F)F)CC(c2ccc(Cl)cc2)N3)c1", "stereo": "centres undefined", "SAM-II": "0", "PreQ1": "0", "TPP": "0"}
{"compound": "CCNC(=O)[C@@H]1C[C@H](N)CN1Cc1ccc(Oc2ncccn2)cc1", "SAM-II": "0", "PreQ1": "0", "TPP": "0"}
{"compound": "Cc1ccc(C)c(OCC(O)Cn2c(C3CC(=O)N(c4ccccc4)C3)nc3ccccc32)c1", "stereo": "centres undefined", "PreQ1": "0", "TPP": "0"}
{"compound": "NC1=C(c2nc3ccccc3s2)C(=O)CN1C1CCCC1", "PreQ1": "0", "TPP": "0"}
{"compound": "c1cc(-c2ccccc2CN2CCNCC2)cc(-n2cccn2)c1", "SAM-II": "0", "PreQ1": "0", "TPP": "0"}
{"compound": "CC1CCc2nc(N)sc2C1", "stereo": "centres undefined", "SAM-II": "0", "PreQ1": "0", "TPP": "0"}
{"compound": "O=C(C(O)c1ccc(C(F)(F)F)cc1)N1CC(c2ccccn2)C1", "stereo": "centres undefined", "SAM-II": "0", "PreQ1": "0", "TPP": "0"}
{"compound": "Fc1ccc(NC(c2ccccc2)c2nnc(-c3ccccc3)o2)c(F)c1", "stereo": "centres undefined", "SAM-II": "0", "PreQ1": "0", "TPP": "0"}
{"compound": "Cc1ccc(S(=O)(=O)N2c3ccccc3C(Nc3ccccc3)CC2C)cc1", "stereo": "centres undefined", "SAM-II": "0", "PreQ1": "0", "TPP": "0"}
{"compound": "N#CC1=C(N)N(c2ccc(F)cc2)C2=C(C1c1ccc(F)cc1)S(=O)(=O)CC2", "stereo": "centres undefined", "SAM-II": "0", "PreQ1": "0", "TPP": "0"}
{"compound": "CCCCc1ccc(-n2cc(CN3CCCC(O)(CO)CC3)cn2)cc1", "stereo": "centres undefined", "SAM-II": "0", "PreQ1": "0", "TPP": "0"}
{"compound": "CCNC(=O)[C@@H]1C[C@H](N)CN1C(=O)c1cc(C2CC2)nc2ccccc12", "SAM-II": "0", "PreQ1": "0", "TPP": "0"}
{"compound": "O=C1N(CCc2ccccc2)CCCC1(O)CNCc1cccs1", "stereo": "centres undefined", "SAM-II": "0", "PreQ1": "0", "TPP": "0"}
{"compound": "N#Cc1c(-c2cccnc2)cc(-c2ccc(F)cc2)nc1N", "SAM-II": "1", "PreQ1": "0", "TPP": "0"}
{"compound": "COc1ccccc1C1C(C#N)=C(N)OC2=C1S(=O)(=O)N(Cc1ccc(F)cc1)c1ccccc12", "stereo": "centres undefined", "PreQ1": "0", "TPP": "0"}
{"compound": "Cc1cccc(C)c1Oc1ncccc1CNC(=O)[C@@H](N)Cc1c[nH]cn1", "SAM-II": "0", "PreQ1": "0", "TPP": "0"}
{"compound": "CCCCNc1nc(Oc2ccc(OCC)nn2)nc(N2CCOCC2)n1", "PreQ1": "0", "TPP": "0"}
{"compound": "Cc1nnc(-c2ccc(-c3cnc(N)cn3)cc2)o1", "SAM-II": "0", "PreQ1": "0", "TPP": "0"}
{"compound": "COc1cc(-c2c(C#N)c(N)nc3c2CN(C)CC3)cc(OC)c1OC", "SAM-II": "0", "PreQ1": "0", "TPP": "0"}
{"compound": "CC(=O)OCCN1C(=O)c2c(C)nc3ccc(S(=O)(=O)N4CCOCC4)cc3c2C1=O", "SAM-II": "0", "PreQ1": "0", "TPP": "0"}
{"compound": "COc1c(C)cc(-c2cnc(N)nc2)cc1C", "SAM-II": "0", "PreQ1": "0", "TPP": "0"}
{"compound": "C1CCC(NC2=NCCO2)CC1", "SAM-II": "0", "PreQ1": "0", "TPP": "0"}
{"compound": "CC(Nc1nc(N2CCNCC2)nc2ccccc12)c1ccccc1", "stereo": "centres undefined", "SAM-II": "0", "PreQ1": "0", "TPP": "0"}